From article PMC5116172
Results are given in words; binding and its absence hold for the method and conditions named. Some entries that bind do so weakly or less than the wild type.

The chains behind the UniProt entries cited, without tags or fusion partners. Residues count along the entry.
UniProt P07355: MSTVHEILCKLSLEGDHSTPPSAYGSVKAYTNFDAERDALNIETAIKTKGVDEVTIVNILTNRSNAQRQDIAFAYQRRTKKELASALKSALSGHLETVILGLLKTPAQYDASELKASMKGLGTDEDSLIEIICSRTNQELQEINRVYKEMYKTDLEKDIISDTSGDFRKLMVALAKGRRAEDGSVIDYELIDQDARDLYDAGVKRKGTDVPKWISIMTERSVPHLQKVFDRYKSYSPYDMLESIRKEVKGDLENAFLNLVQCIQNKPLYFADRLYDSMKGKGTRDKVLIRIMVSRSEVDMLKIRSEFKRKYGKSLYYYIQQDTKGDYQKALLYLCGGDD
UniProt P60903: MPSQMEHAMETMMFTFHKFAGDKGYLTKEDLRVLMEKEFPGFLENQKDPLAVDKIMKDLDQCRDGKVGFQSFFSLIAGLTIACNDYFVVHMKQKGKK
UniProt P03973, residues 26-132: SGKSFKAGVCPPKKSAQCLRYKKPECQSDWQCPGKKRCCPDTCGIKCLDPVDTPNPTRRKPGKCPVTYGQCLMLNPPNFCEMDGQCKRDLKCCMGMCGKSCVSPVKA

Molecular target: annexin A2 from macrophages (human (endogenous in monocyte-derived macrophages)) (UniProt P07355)
Assay: single molecule pulldown (SiMPull); macrophage lysates flowed onto slides coated with an anti-A2 capture antibody; complexes detected with mouse anti-S100A10 or anti-SLPI antibodies and 568-conjugated secondary antibody, TIRF microscopy

Substance	binding
S100A10 from macrophage lysate (from UniProt P60903 1-97)	binds
secretory leukocyte protease inhibitor from macrophage lysate (from UniProt P03973 26-132)	binds
